PubChem BioAssay AID1259425 – University of Nebraska Medical Center | 2018

- Aim: 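Seek colon cancer weak points whose silencing resembles KSR1 loss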 (primary screen)
- Cells: HCT116 human colon cancer cells
- Reagent: siRNA pool against human genes, 50 nM siRNA
- Detection: 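mRNA of six signature genes measured together by branched-DNA assay after 50 nM siRNA pool, blank removed, divided by geometric mean of two housekeeping genes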
- Reading the numbers: BNIP3L mRNA: higher = more BNIP3L transcript after knockdown
Here is an unselected part of about 14,000 deposited reagents. Further read-outs or replicates are left out here. Not given: the time to read-out.

With knock-down of SYMPK, the screen gave BNIP3L mRNA, set 1 = 0.0686. Silencing of SH3GL1 resulted in: BNIP3L mRNA, set 1 = 0.179. ING3 showed BNIP3L mRNA, set 1 = 0.0486. HNRNPH3 scored BNIP3L mRNA, set 1 = 0.199. Against FASTKD1, the values are BNIP3L mRNA, set 1 = 0.0898. Silencing of ILKAP gave: BNIP3L mRNA, set 1 = 0.0839.

CAMK2B gave BNIP3L mRNA, set 1 = 0.0923. With knock-down of TK1, the record shows BNIP3L mRNA, set 1 = 0.0517. Depletion of FBXW5 resulted in: BNIP3L mRNA, set 1 = 0.244. Against SLITRK3, the entry reads BNIP3L mRNA, set 1 = 0.0923. With knock-down of PTPRR, the record shows BNIP3L mRNA, set 1 = 0.272. Against TM7SF2, the values are BNIP3L mRNA, set 1 = 0.0746.

After knock-down of STATH the results were BNIP3L mRNA, set 1 = 0.121. After knock-down of BAP1, the screen gave BNIP3L mRNA, set 1 = 0.0895. Against ING5 the deposit lists BNIP3L mRNA, set 1 = 0.2. After knock-down of TPTEP1 the results were BNIP3L mRNA, set 1 = 0.245. Depletion of COPS2 resulted in: BNIP3L mRNA, set 1 = 0.0715. Knock-down of IFNA21 gave: BNIP3L mRNA, set 1 = 0.23.

Silencing of PHF11 came out at: BNIP3L mRNA, set 1 = 0.107. TP53INP2 scored BNIP3L mRNA, set 1 = 0.203. DEFA1 gave BNIP3L mRNA, set 1 = 0.0937. Depletion of DDX6 resulted in: BNIP3L mRNA, set 1 = 0.155. For LAIR2, the values are BNIP3L mRNA, set 1 = 0.17. With knock-down of ZNF667, the screen gave BNIP3L mRNA, set 1 = 0.0801.

AKAP4 showed BNIP3L mRNA, set 1 = 0.153. CASP3 scored BNIP3L mRNA, set 1 = 0.0653. After knock-down of GMFG, the screen gave BNIP3L mRNA, set 1 = 0.0501. Against ITGB6, the entry reads BNIP3L mRNA, set 1 = 0.141.

Taken from above.
For “BNIP3L mRNA, set 1”, CAMK2B is entered as 0.0923
HNRNPH3, BNIP3L mRNA, set 1 = 0.199
Value for TM7SF2 in “BNIP3L mRNA, set 1”: 0.0746
